The target of the experiment is hTFPI161-Chis (human) (UniProt P10646). The experiment is described as follows: ELISA, hTFPI161 coated, anti-human IgG4-HRP. (In general: In an ELISA, binding on a coated surface is turned into a signal by an enzyme label.)

Amino acid sequences for entries named in this document (tags omitted). Residues count along the entry.
UniProt P10646, residues 29-189: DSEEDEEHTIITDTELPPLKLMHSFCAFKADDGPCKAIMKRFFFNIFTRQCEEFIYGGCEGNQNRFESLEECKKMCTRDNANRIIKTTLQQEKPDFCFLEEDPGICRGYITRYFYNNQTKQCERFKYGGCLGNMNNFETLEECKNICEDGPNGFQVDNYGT

These are yes or no findings as the source states them, for the method shown. Some results given as binding are weak or reduced against the parent protein; the word gives no strength.

B1: Hu7G62-v2 (antibody, human IgG4 S228P, kappa, V domains shown)
VH: QVQLVQSGAEVKKPGASVKVSCKASGYSFTSYGISWVKQAPGQGLEWIGEIYPRSTNTYYNEKFMGKATLTADKSSSTAYMELSSLRSEDTAVYYCARESFYGDYGAMDFWGQGTLVTVSS
VL: DIVMTQSPLSLPVTPGEPASISCKSSQSLLESDGKTYLNWYLQKPGQSPQLLIYLVSKLDSGVPDRFSGSGSGTDFTLKISRVEAEDVGVYYCSQGTHFPRTFGQGTKVEIKR
With B1, the binding result was “binds”.

(Values after patent US20220325000A1.)
